Some of the results follow. The main result of the screen is listed elsewhere. These columns were measured beside it and carry no call. The list favours compounds with an active or inconclusive main result. Potencies come from curve fits of mixed quality, noted in brackets.
Test: qHTS Assay for Lipid Storage Modulators in Drosophila S3 Cells;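 on cell number change: cells counted by Cell Tracker Red CMTPX staining in the red channel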
Conditions: BODIPY lipid droplet fluorescence, 18-24 h; for cell number change: measured here: cell count max response, cells fed with added oleic acid
In short: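 Drosophila S3 cells got compounds at several concentrations plus oleic acid (400 uM solution). Laser-scanning cytometry with 488 nm excitation read lipid droplets at 500-530 nm and cells at 575-640 nm. Percent activity was relative to 20 uM Triacsin C.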

[1] = measured here: lipid fluorescence (Fed channel) AC50, cells fed with added oleic acid
[2] = measured here: cell number channel AC50, cells fed with added oleic acid

Structure (SMILES)	cell number change	AC50 [1]	AC50 [2]
COc1ccccc1NC(=O)CCC(=O)N/N=C(/C)c1ccc(C)cc1	5.53%	29.1 µM [rising, single point]	–
O=C(Cc1ccc2c(c1)OCCO2)Nc1cc(C(F)(F)F)ccc1N1CCOCC1	94%	–	20.6 µM [rising, partial curve]
O=C(Nc1ccc(Cl)c(Cl)c1)OCCNC(=O)c1cccc(Cl)c1	-14.3%	11.6 µM [rising, partial curve]	–
O=C(Nc1ncccn1)c1cc(-c2cccc(Br)c2)nc2ccccc12	16.7%	–	–
NCC12CC3CC(C1)CC(CN)(C3)C2	0.0893%	6.51 µM [falling, single point]	–
Cc1nn(CC(=O)Nc2c(F)c(F)cc(F)c2F)c(=O)c2cccn12	2.14%	0.58 µM [falling, single point]	–
COc1ccc(NC2=CC(=O)CC(c3ccccc3)C2)c(OC)c1 (stereo not drawn)	12.3%	5.8 µM [rising, single point]	–
CC(=O)CSc1ncnc2sc3c(c12)CCC(C)C3 (stereo not drawn)	8.2%	1.84 µM [rising, partial curve, poor fit]	–
COc1ccc(-c2csc(Nc3ccc(S(=O)(=O)Nc4cc(OC)nc(OC)n4)cc3)n2)cc1	19.4%	20.6 µM [rising, partial curve, poor fit]	–
CC(C(=O)NC1C=CS(=O)(=O)C1)N1C(=O)/C(=C\c2ccccc2)SC1=S (stereo not drawn)	8.02%	–	6.51 µM [falling, single point]
CC1CCCN(C(=O)c2ccncc2)C1 (stereo not drawn)	-172%	–	23.1 µM [falling, partial curve]
Cn1ccc2ccc(C3=CC(=O)C[C@H](c4ccc(F)cc4)C3)cc21	-20.8%	4.61 µM [falling, partial curve]	–
CC(NC(=O)COC(=O)CCc1ccc(S(=O)(=O)N2CCOCC2)cc1)C1CC2CCC1C2 (stereo not drawn)	-22.5%	0.00461 µM [falling, full curve, poor fit]	–
CCCCCn1c(=O)[nH]c2cc(C(=O)NCCN3CCCCC3C)ccc2c1=O (stereo not drawn)	3.42%	29.1 µM [falling, single point]	–
CSc1nsc(/C=C/Nc2ccc(C)cc2)c1C#N	-41.8%	2.31 µM [falling, partial curve]	2.31 µM [falling, partial curve, poor fit]
CC1CCN(S(=O)(=O)c2cn(CC(=O)Nc3ccc(OC(F)(F)F)cc3)cn2)CC1	10.1%	6.51 µM [rising, partial curve, poor fit]	–
Cn1c(=O)c(=O)n(C)c2cc(S(=O)(=O)Nc3ccc(OC(F)(F)F)cc3)ccc21	23%	20.6 µM [rising, single point]	–
O=C(Nc1cccc(S(=O)(=O)NC2=NCCCCC2)c1)c1cc(-c2ccccc2)nc2ccccc12	55.3%	–	14.6 µM [rising, partial curve]
COc1ccc(-c2csc(NC(=O)c3ccccc3NS(=O)(=O)c3ccc(C)cc3)n2)cc1	-39.3%	2.59 µM [falling, full curve]	16.4 µM [falling, single point]
COc1ccc(OCc2cc(C(=O)NC(C)Cc3cccnc3)no2)c(Cl)c1 (stereo not drawn)	14.5%	7.31 µM [falling, partial curve]	–

Structure (SMILES)	cell number change	AC50 [1]	AC50 [2]
O=C1C=CC(=O)N1CCNc1ncc(C(F)(F)F)cc1Cl	-16%	4.61 µM [falling, full curve]	2.91 µM [falling, single point]
O=C(NCc1cccnc1)c1cccc(S(=O)(=O)Nc2cccc(Cl)c2)c1	-13.3%	–	3.26 µM [rising, single point]
O=C(NCC(=O)N(c1cccc(F)c1)C(C(=O)NC1CCCC1)c1cccnc1)c1cccs1 (stereo not drawn)	–	–	0.146 µM [falling, full curve, poor fit]
COc1ccc(NC(=O)[C@H](C)NC(N)=O)cc1S(=O)(=O)Nc1cc(C)ccc1Br	–	0.00411 µM [falling, full curve, poor fit]	–
Cc1ccc(SCC(=O)N2c3ccccc3Sc3ccccc32)cc1	–	4.11 µM [falling, single point]	–
O=C(c1ccco1)N1CCN(C(=O)c2ccc(CS(=O)c3ccc(F)cc3)o2)CC1 (stereo not drawn)	-2.42%	16.4 µM [falling, single point]	–
COc1ccc(/C=C/C(=O)NCCSCc2ccco2)cc1	7.65%	29.1 µM [rising, single point]	–
COCCCn1c(-c2ccccc2Cl)n[nH]c1=S	13.3%	–	–
Cc1nc2c(ccc3c([N+](=O)[O-])cccc32)c(C)c1C	–	0.231 µM [rising, full curve]	–
CC1(C2CC2)NC(=O)N(CC(=O)N2CCN(c3ccc(F)cc3)CC2)C1=O (stereo not drawn)	–	18.4 µM [falling, partial curve, poor fit]	–
Cc1ccc(C(=O)Nc2ccc(Cl)cn2)cc1	3.97%	29.1 µM [rising, single point]	–
CC(C)CNC(=O)COC(=O)c1cc(Cl)cc(Cl)c1N	0.799%	–	–
COc1ccc(S(=O)(=O)N2CCCC(C(=O)Nc3ccc4c(c3)OCCO4)C2)cc1 (stereo not drawn)	-29.9%	16.4 µM [falling, single point]	–
c1ccc(-c2nnnn2CCOCCn2nnnc2-c2ccccc2)cc1	-1.25%	–	–
Cc1ccc(/C=C/C(=O)O)cc1S(=O)(=O)Nc1ccc(C(=O)O)cc1	-31.9%	20.6 µM [falling, single point]	0.461 µM [falling, full curve, poor fit]
COC(=O)C1=C(COc2ccc(F)cc2)NC(=O)NC1c1ccc(C)cc1C (stereo not drawn)	-18.2%	32.6 µM [falling, partial curve]	–
COCCCn1c(SCC(=O)Nc2ccc(NC(C)=O)cc2)nc2sc3c(c2c1=O)CCC3	16.2%	6.51 µM [falling, single point]	–
c1ccc(-n2nnnc2Sc2ncnc3sc4c(c23)CCCC4)cc1	133%	8.2 µM [rising, partial curve, poor fit]	29.1 µM [rising, partial curve, poor fit]
CN1CCN(C(=S)c2ccc(OCC(=O)Nc3cccc(C(F)(F)F)c3)cc2)CC1	-39.1%	20.6 µM [falling, partial curve]	16.4 µM [falling, single point]
O=C(Nc1ccc2c(c1)N(S(=O)(=O)c1cccs1)CCC2)c1c(F)cccc1F	–	2.59 µM [rising, partial curve, poor fit]	–

Structure (SMILES)	cell number change	AC50 [1]	AC50 [2]
O=C(Nc1ccccc1)c1nsnc1C(=O)Nc1ccccc1	24.7%	0.116 µM [falling, full curve, poor fit]	–
COc1ccc(CCC(=O)OCC(=O)Nc2c(C)nn(-c3ccccc3)c2C)cc1	17.3%	–	–
CC(=O)c1cccc(NC(=O)N2CCOCC2)c1	17.3%	0.00411 µM [falling, full curve, poor fit]	–
CCOC(=O)c1nnn(-c2nonc2N)c1CSc1ccc(C)cc1	-1.19%	–	0.103 µM [falling, partial curve, poor fit]
COc1cccc(NC(=O)Nc2ccc3c(c2)OCO3)c1	1.59%	–	–
COc1ccc(S(=O)(=O)Nc2ccc(-n3cnnn3)cc2)cc1Br	-3.21%	–	–
O=C(N/N=C/c1coc2ccccc2c1=O)c1cn(-c2ccccc2)nc1-c1ccc(F)cc1	12.9%	0.517 µM [falling, partial curve]	0.146 µM [falling, partial curve, poor fit]
Cc1nc(SCC(=O)Nc2ccc(CN3CCCC3)cc2)c2c(C)c(C)sc2n1	14.1%	–	–
CC(C)CCOc1ccc(C2(C)NC(=O)NC2=O)cc1 (stereo not drawn)	4.99%	–	0.00651 µM [rising, full curve, poor fit]
COC(=O)[C@]1(C)N[C@H](c2ccc(-c3ccccc3)cc2)[C@@H]2C(=O)N(C)C(=O)[C@@H]21	0.99%	–	–
CCc1nc2c(s1)CCc1onc(-c3ccc(Cl)cc3)c1-2	41.1%	25.9 µM [rising, partial curve]	18.4 µM [rising, single point]
NC(=O)Cn1cc(/C=N\NS(=O)(=O)c2ccc(F)cc2)c2ccccc21	-20.2%	6.51 µM [rising, single point]	–
COc1ccc(-c2nnc(SCC(=O)Nc3cc(F)ccc3C)o2)cc1	-29.9%	0.0116 µM [rising, full curve, poor fit]	–
COc1cc(-c2noc(C3CCCN(C(=O)c4c(F)cccc4F)C3)n2)cc(OC)c1OC (stereo not drawn)	-36.5%	5.8 µM [falling, single point]	25.9 µM [falling, single point]
CCN(CC)CCN(C(=O)/C=C/c1cccs1)c1nc2ccc(F)cc2s1	16.5%	6.51 µM [rising, single point]	–
COc1ccccc1C(=O)NCC(=O)OCC(=O)Nc1ccc2[nH]c(=O)[nH]c2c1	-20.9%	–	0.146 µM [falling, full curve, poor fit]
Cc1ccc(NC(=O)c2nc[nH]c2C(=O)N2CCN(C(=O)OC(C)(C)C)CC2)cc1	-34.6%	–	4.61 µM [falling, single point]
CCC(C)c1ccc(OCc2ccc(C(=O)O)o2)cc1 (stereo not drawn)	10.6%	3.66 µM [rising, full curve]	2.06 µM [rising, single point]
Cc1ccc(P(C)(=O)c2ccc(C)cc2)cc1	31.4%	–	29.1 µM [rising, single point]
